These are yes or no findings as the source states them, for the method shown. Binding seen in cells or lysates may run through a third protein. Some results given as binding are weak or reduced against the parent protein; the word gives no strength.
B1: RAC1-GEF FARP1 (protein, UniProt F8VPU2 1-1048)
chain: MGEIEQKPTPASRLGAPENSGISTLERGQKPPPTPSGKLMTVKIQMLDDTQEAFEVPQRAPGKVLFDAVCNHLNLVEGDYFGLEFPDHRKIVVWLDLLKPIVKQIRRPKHVVVKFVVKFFPPDHTQLQEELTRYLFALQVKQDLAQGRLTCNDTSAALLISHIVQSEIGDFDEALDREHLAKNKYVPQQDALEDRIMEFHHSHVGQTPAESDFQLLEVARRLEMYGIRLHPAKDREGTKINLAVANTGILVFQGFTKINAFNWAKVRKLSFKRKRFLIKLRPDVNSSYQDTLEFLMAGRDFCKSFWKICVEHHAFFRLFEEPKPKPKPVLFSRGSSFRFSGRTQKQVLDYVKEGGHKKVQFERKHSKIHSTRSLVSQPTAPNSEVPKQSPQSASLTFGEGTESPGGQSCQQAKETKACTLELGPHQSPALPKSPPGSKAADGTTVVPPEEEEEEEGGKDGIRPSNPQPPQPSTGSLTGSPHLSELSINSQGGAAPANVTLSPNLSPDNKQASPLISPLLNDQACPRTDDEEEGRRKRFPTDKAYYIAKEVSTTERTYLKDLEVIASWFQSTVSKEDSMPEALKSLIFPNFEPLHKFHTNFLKEIEQRLALWEGRSNAHVRGDYQRIGDVMLKNIQGMKHLAAHLWKHSEALEALETSIKGSRRLEHFCRDFELQKVCYLPLNTFLLRPLHRLMHYKHVLERLCKHHPPNHADFRDCRAALAEITEMVAQLHGTMIKMENFQKLHELKKDLIGIDNLVTPGREFIRLGSLSKLSGKGLQQRMFFLFNDVLLYTSRGLTASNQFKVHGQLPLYGMTIEESEEEWGVPHCLTLRGQRQSIIVAASSRSEMEKWMEDIQMAIDLAEKSNGPTPELLASSPPDNKSPDEATAADQESEDDLSASRTSLERQAPHRGNTMVHVCWHRSTSVSMVDFSIAVENQLSGNLLRKFKNSNGWQKLWVVFTNFCLFFYKSHQDSHPLASLPLLGYSLTIPSESENIHKDYVFKLHFKSHVYYFRAESEYTFERWMEVIRSATSSASRAHILSHKESHLY

Amino acid sequences for entries named in this document (tags omitted). A change or cut given only in a name is not applied to a line headed by its entry.
UniProt Q64010: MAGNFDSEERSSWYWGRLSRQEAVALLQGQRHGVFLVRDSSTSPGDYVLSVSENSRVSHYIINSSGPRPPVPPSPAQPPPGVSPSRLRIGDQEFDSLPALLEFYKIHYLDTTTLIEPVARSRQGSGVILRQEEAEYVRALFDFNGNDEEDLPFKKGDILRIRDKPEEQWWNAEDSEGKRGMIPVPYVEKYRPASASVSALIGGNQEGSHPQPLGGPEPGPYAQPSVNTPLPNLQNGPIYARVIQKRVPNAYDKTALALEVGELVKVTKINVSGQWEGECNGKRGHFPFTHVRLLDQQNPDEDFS

How the values were obtained:
[1] = biological target: T1, RAC1-GEF FARP1 (mouse (endogenous in E18.5 limb muscle and primary MuSC-derived myotubes)) (UniProt F8VPU2); experiment: co-IP; immunoprecipitation with a FARP1 antibody from E18.5 limb muscle protein extract; co-precipitated proteins identified by western blot
T1 sequence: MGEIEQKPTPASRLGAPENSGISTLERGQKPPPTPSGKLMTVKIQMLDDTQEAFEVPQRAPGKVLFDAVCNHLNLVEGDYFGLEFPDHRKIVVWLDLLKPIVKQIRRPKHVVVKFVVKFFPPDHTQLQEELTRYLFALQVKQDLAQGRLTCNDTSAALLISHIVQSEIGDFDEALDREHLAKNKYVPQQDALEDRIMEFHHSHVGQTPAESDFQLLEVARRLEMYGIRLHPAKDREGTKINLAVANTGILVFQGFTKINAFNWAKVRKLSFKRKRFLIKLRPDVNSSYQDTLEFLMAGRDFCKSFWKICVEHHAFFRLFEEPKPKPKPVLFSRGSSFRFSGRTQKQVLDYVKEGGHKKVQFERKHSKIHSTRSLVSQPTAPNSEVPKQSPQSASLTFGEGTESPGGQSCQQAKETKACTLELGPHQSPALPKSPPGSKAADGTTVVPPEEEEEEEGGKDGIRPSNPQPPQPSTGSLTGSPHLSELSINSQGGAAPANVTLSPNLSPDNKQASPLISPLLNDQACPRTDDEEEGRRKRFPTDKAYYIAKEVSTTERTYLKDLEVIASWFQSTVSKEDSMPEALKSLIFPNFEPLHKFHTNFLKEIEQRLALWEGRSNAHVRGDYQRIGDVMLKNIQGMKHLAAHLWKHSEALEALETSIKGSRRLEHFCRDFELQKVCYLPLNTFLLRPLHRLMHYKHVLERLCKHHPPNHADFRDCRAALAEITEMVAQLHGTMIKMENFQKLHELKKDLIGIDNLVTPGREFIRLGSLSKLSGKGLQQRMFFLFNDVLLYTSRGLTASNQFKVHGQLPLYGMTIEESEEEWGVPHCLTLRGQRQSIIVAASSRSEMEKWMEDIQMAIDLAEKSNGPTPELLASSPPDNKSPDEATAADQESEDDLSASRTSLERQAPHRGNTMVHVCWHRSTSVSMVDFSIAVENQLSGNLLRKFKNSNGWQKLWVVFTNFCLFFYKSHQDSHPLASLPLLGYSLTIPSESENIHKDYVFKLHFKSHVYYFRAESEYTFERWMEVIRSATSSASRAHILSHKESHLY

[2] = biological target: Adapter protein CRK (mouse (endogenous in E18.5 limb muscle and primary MuSC-derived myotubes)) (UniProt Q64010); experiment: proximity ligation; DuoLink in situ PLA with anti-CRK and anti-FARP1 antibodies in fixed myotubes differentiated from control and miR-1/206/133 tKO primary MuSCs

Molecule	binding [1]	binding [2]
Adapter protein CRK (from UniProt Q64010-1 1-304)	binds	–
B1	–	binds
